This note sets out measurements from article doi:10.1101/577437.

Protein sequences, listed by entry. Tags and fused reporters are not part of them. Residues count along the entry.
UniProt P84095, residues 1-179: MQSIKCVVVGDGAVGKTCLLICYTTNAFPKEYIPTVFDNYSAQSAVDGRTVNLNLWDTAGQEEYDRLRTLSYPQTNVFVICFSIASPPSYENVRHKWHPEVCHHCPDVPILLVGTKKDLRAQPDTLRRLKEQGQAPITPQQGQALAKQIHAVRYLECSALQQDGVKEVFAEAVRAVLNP
UniProt P15056, residues 150-233: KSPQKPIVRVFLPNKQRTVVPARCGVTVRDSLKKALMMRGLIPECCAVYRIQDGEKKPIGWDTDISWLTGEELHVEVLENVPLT
UniProt Q15311, residues 395-517: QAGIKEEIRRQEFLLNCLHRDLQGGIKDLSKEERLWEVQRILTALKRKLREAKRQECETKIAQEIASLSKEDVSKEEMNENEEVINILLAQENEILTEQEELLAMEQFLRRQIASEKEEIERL

One assay has as its target RHOG (residues 1-179) (UniProt P84095). Briefly: NMR titration.
The target in assay [1] is HRAS wild-type (residues 1-171) (UniProt P01112). Nature of the assay: NMR titration.

Results are given in words; binding and its absence hold for the method and conditions named.

For the substance “human BRAF RBD (residues 150-233) (from UniProt P15056 150-233) (domain or fragment)”, the binding entry with RHOG (residues 1-179) is “no binding”.

Consider “human RLIP76 RBD (residues 395-517) (from UniProt Q15311 395-517) (domain or fragment)”, for which the binding entry in assay [1] is given as “no binding”.
